Measurements as given in patent EP3461488A1, “COMBINATION OF A DBAIT MOLECULE AND A HDAC INHIBITOR FOR TREATING CANCER” (ONXEO, priority 2017, dated 2019).

Assays:
[1] = system: triple negative breast cancer cell line MDA-MB-231; test: XTT cell survival assay and combination index analysis, MDA-MB-231; type: cell-based; details: Homo sapiens, XTT assay, monotherapy, increasing concentrations for 4 to 7 days, dose at which 50% of the cells are viable
[2] = system: histiocytic lymphoma cell line U937; test: XTT cell survival assay and combination index analysis, U937; type: cell-based; details: Homo sapiens, U-937, XTT assay, monotherapy, increasing concentrations for 4 to 7 days, dose at which 50% of the cells are viable

With `O=C(CCCCCCC(=O)Nc1ccccc1)NO` [Vorinostat, N-hydroxy-N'-phenyloctanediamide] the IC50 [1] was 1500 nM and the IC50 [2] was 600 nM.
